# Laboratory results as given in the supplement of paper PMC8728848.
# The other results are listed elsewhere or left out.
# How the values were obtained:
# Assay in all cases: glycan array binding signal (z-score within array); higher = stronger binding
# Settings in all cases: glycan notation: IUPAC condensed, linker removed
# GalNAc3S(b1-4)GlcNAc3S = target: GalNAc3S(b1-4)GlcNAc3S
# Method in brief: (§1)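 Glycan array binding is given as a within-array Z-score, which can be read as non-binding when negative. The arrays, 3228 of them, came from the Consortium for Functional Glycomics database and were retained only where the protein sequence was available. Z-scores were averaged across arrays of the same protein sequence at different concentrations or buffers and across linkers.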
# [1] = target: GalNAc3S(b1-4)[Fuc(a1-3)]GlcNAc
# Method in brief: as §1
# GalNAc4S6S(b1-4)GlcNAc = target: GalNAc4S6S(b1-4)GlcNAc
# Method in brief: as §1
# GalNAc6S(b1-4)GlcNAc = target: GalNAc6S(b1-4)GlcNAc
# Method in brief: as §1
# Glc(a1-4)Glc = target: Glc(a1-4)Glc
# Method in brief: as §1
# [2] = target: Glc(a1-4)Glc(a1-4)Glc(a1-4)Glc
# Method in brief: as §1
# Glc(a1-6)Glc(a1-6)Glc = target: Glc(a1-6)Glc(a1-6)Glc
# Method in brief: as §1
# [3] = target: Glc(a1-6)Glc(a1-6)Glc(a1-6)Glc
# Method in brief: as §1
# Glc(b1-4)Glc = target: Glc(b1-4)Glc
# Method in brief: as §1
# Glc(b1-6)Glc = target: Glc(b1-6)Glc
# Method in brief: as §1
# GlcA(b1-3)Gal = target: GlcA(b1-3)Gal
# Method in brief: as §1
# GlcA(b1-3)GlcNAc = target: GlcA(b1-3)GlcNAc
# Method in brief: as §1
# GlcA(b1-6)Gal = target: GlcA(b1-6)Gal
# Method in brief: as §1
# [4] = target: GlcA3S(b1-3)Gal(b1-4)GlcNAc(b1-2)Man
# Method in brief: as §1
# [5] = target: GlcA3S(b1-3)Gal(b1-4)GlcNAc(b1-3)Gal(b1-4)Glc
# Method in brief: as §1
# [6] = target: GlcNAc(a1-3)Gal(b1-4)GlcNAc
# Method in brief: as §1
# [7] = target: GlcNAc(a1-4)Gal(b1-3)GlcNAc
# Method in brief: as §1
# [8] = target: GlcNAc(a1-4)Gal(b1-4)GalNAc
# Method in brief: as §1
# [9] = target: GlcNAc(a1-4)Gal(b1-4)GlcNAc
# Method in brief: as §1
# [10] = target: GlcNAc(a1-4)Gal(b1-4)GlcNAc(b1-3)Gal(b1-4)Glc
# Method in brief: as §1
# [11] = target: GlcNAc(a1-4)Gal(b1-4)GlcNAc(b1-3)Gal(b1-4)GlcNAc
# Method in brief: as §1
# [12] = target: GlcNAc(a1-4)Gal(b1-4)GlcNAc(b1-3)Gal(b1-4)GlcNAc(b1-3)Gal(b1-4)GlcNAc
# Method in brief: as §1
# [13] = target: GlcNAc(a1-4)Gal(b1-4)GlcNAc(b1-3)Gal(b1-4)[Fuc(a1-3)]GlcNAc(b1-3)Gal(b1-4)[Fuc(a1-3)]GlcNAc
# Method in brief: as §1
# [14] = target: GlcNAc(a1-6)Gal(b1-4)GlcNAc
# Method in brief: as §1
# [15] = target: GlcNAc(b1-2)Gal(b1-3)GalNAc
# Method in brief: as §1
# [16] = target: GlcNAc(b1-2)Man(a1-3)[GlcNAc(b1-2)Man(a1-6)]Man(b1-4)GlcNAc(b1-4)GlcNAc
# Method in brief: as §1
# [17] = target: GlcNAc(b1-2)Man(a1-3)[GlcNAc(b1-2)Man(a1-6)]Man(b1-4)GlcNAc(b1-4)[Fuc(a1-6)]GlcNAc
# Method in brief: as §1
# [18] = target: GlcNAc(b1-2)Man(a1-3)[GlcNAc(b1-4)][GlcNAc(b1-2)Man(a1-6)]Man(b1-4)GlcNAc(b1-4)GlcNAc
# Method in brief: as §1
# [19] = target: GlcNAc(b1-2)Man(a1-3)[GlcNAc(b1-4)][GlcNAc(b1-2)Man(a1-6)]Man(b1-4)GlcNAc(b1-4)[Fuc(a1-6)]GlcNAc
# Method in brief: as §1
# [20] = target: GlcNAc(b1-2)[GlcNAc(b1-4)]Man(a1-3)[GlcNAc(b1-2)Man(a1-6)]Man(b1-4)GlcNAc(b1-4)GlcNAc
# Method in brief: as §1
# [21] = target: GlcNAc(b1-2)[GlcNAc(b1-4)]Man(a1-3)[GlcNAc(b1-4)][GlcNAc(b1-2)Man(a1-6)]Man(b1-4)GlcNAc(b1-4)GlcNAc
# Method in brief: as §1
# [22] = target: GlcNAc(b1-2)[GlcNAc(b1-4)]Man(a1-3)[GlcNAc(b1-4)][GlcNAc(b1-2)[GlcNAc(b1-6)]Man(a1-6)]Man(b1-4)GlcNAc(b1-4)GlcNAc
# Method in brief: as §1
# [23] = target: GlcNAc(b1-2)[GlcNAc(b1-4)]Man(a1-3)[GlcNAc(b1-4)][GlcNAc(b1-2)[GlcNAc(b1-6)]Man(a1-6)]Man(b1-4)GlcNAc(b1-4)[Fuc(a1-6)]GlcNAc
# Method in brief: as §1
# [24] = target: GlcNAc(b1-2)[GlcNAc(b1-6)]Man(a1-6)[GlcNAc(b1-2)Man(a1-3)]Man(b1-4)GlcNAc(b1-4)GlcNAc
# Method in brief: as §1
# [25] = target: GlcNAc(b1-2)[GlcNAc(b1-6)]Man(a1-6)[GlcNAc(b1-2)Man(a1-3)]Man(b1-4)GlcNAc(b1-4)[Fuc(a1-6)]GlcNAc
# Method in brief: as §1
# [26] = target: GlcNAc(b1-2)[GlcNAc(b1-6)]Man(a1-6)[GlcNAc(b1-4)][GlcNAc(b1-2)Man(a1-3)]Man(b1-4)GlcNAc(b1-4)GlcNAc
# Method in brief: as §1
# GlcNAc(b1-3)Fuc = target: GlcNAc(b1-3)Fuc
# Method in brief: as §1
# GlcNAc(b1-3)Gal = target: GlcNAc(b1-3)Gal
# Method in brief: as §1
binder,measurement,setting,value
"SUN4 (Saccharomyces cerevisiae), P53616 (protein) MGSSHHHHHHSSGLVPRGSHNGSIYGDLADFSGPYEKFEDGTIPCGQFPSGQGVIPISWLDEGGWSGVENTDTSTGGSCKEGSYCSYACQPGMSKTQWPSDQPSDGRSIGGLLCKDGYLYRSNTDTDYLCEWGVDAAYVVSELSNDVAICRTDYPGTENMVIPTYVQAGDSLPLTVVDQDTYYTWQGLKTSAQYYVNNAGISVEDACVWGSSSSGVGNWAPLNFGAGSSDGVAYLSLIPNPNNGNALNFNVKIVAADDSSTVNGECIYENGSFSGGSDGCTVSVTAGKAKFVLYN",glycan array binding signal (z-score),GalNAc3S(b1-4)GlcNAc3S,0.637
same,glycan array binding signal (z-score),[1],1.46
same,glycan array binding signal (z-score),GalNAc4S6S(b1-4)GlcNAc,0.557
same,glycan array binding signal (z-score),GalNAc6S(b1-4)GlcNAc,-0.027
same,glycan array binding signal (z-score),Glc(a1-4)Glc,-0.141
same,glycan array binding signal (z-score),[2],0.791
same,glycan array binding signal (z-score),Glc(a1-6)Glc(a1-6)Glc,-0.293
same,glycan array binding signal (z-score),[3],0.691
same,glycan array binding signal (z-score),Glc(b1-4)Glc,-0.935
same,glycan array binding signal (z-score),Glc(b1-6)Glc,-0.514
same,glycan array binding signal (z-score),GlcA(b1-3)Gal,-0.039
same,glycan array binding signal (z-score),GlcA(b1-3)GlcNAc,-0.127
same,glycan array binding signal (z-score),GlcA(b1-6)Gal,-0.052
same,glycan array binding signal (z-score),[4],0.305
same,glycan array binding signal (z-score),[5],0.251
same,glycan array binding signal (z-score),[6],0.414
same,glycan array binding signal (z-score),[7],0.416
same,glycan array binding signal (z-score),[8],0.779
same,glycan array binding signal (z-score),[9],-0.265
same,glycan array binding signal (z-score),[10],0.55
same,glycan array binding signal (z-score),[11],0.697
same,glycan array binding signal (z-score),[12],0.098
same,glycan array binding signal (z-score),[13],1.28
same,glycan array binding signal (z-score),[14],-1.15
same,glycan array binding signal (z-score),[15],0.963
same,glycan array binding signal (z-score),[16],0.264
same,glycan array binding signal (z-score),[17],-0.619
same,glycan array binding signal (z-score),[18],-1.38
same,glycan array binding signal (z-score),[19],-0.555
same,glycan array binding signal (z-score),[20],0.022
same,glycan array binding signal (z-score),[21],-0.295
same,glycan array binding signal (z-score),[22],-0.107
same,glycan array binding signal (z-score),[23],-0.237
same,glycan array binding signal (z-score),[24],-0.666
same,glycan array binding signal (z-score),[25],0.117
same,glycan array binding signal (z-score),[26],-0.641
same,glycan array binding signal (z-score),GlcNAc(b1-3)Fuc,-0.064
same,glycan array binding signal (z-score),GlcNAc(b1-3)Gal,-0.944

# Two consecutive entries from above:
binder,measurement,setting,value
"SUN4 (Saccharomyces cerevisiae), P53616 (protein) MGSSHHHHHHSSGLVPRGSHNGSIYGDLADFSGPYEKFEDGTIPCGQFPSGQGVIPISWLDEGGWSGVENTDTSTGGSCKEGSYCSYACQPGMSKTQWPSDQPSDGRSIGGLLCKDGYLYRSNTDTDYLCEWGVDAAYVVSELSNDVAICRTDYPGTENMVIPTYVQAGDSLPLTVVDQDTYYTWQGLKTSAQYYVNNAGISVEDACVWGSSSSGVGNWAPLNFGAGSSDGVAYLSLIPNPNNGNALNFNVKIVAADDSSTVNGECIYENGSFSGGSDGCTVSVTAGKAKFVLYN",glycan array binding signal (z-score),GalNAc3S(b1-4)GlcNAc3S,0.637
same,glycan array binding signal (z-score),[1],1.46
